Experimental findings from PubChem BioAssay AID1487 (National Center for Advancing Translational Sciences (NCATS), 2009) are described below.

SMILES strings stand for the structures. Values joined by “and” are separate entries in the source; they are usually repeats but may differ in a detail not shown here. Equal entries are not always repeated. Some of the results follow. Further columns of the screen follow, without active or inactive calls. Most of these compounds were active or inconclusive in the main read-out, so they are no random draw. Potencies come from curve fits of mixed quality, noted in brackets.

The nature of the test: qHTS Assay for Modulators of Lamin A Splicing. As to conditions: HeLa LMNA splicing GFP/RFP minigene ratio, 48 h. An outline of the steps:
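Read-out is the ratio of GFP to DsRed2 object intensity, acquired by 488 nm laser-scanning cytometry on HeLa lamin A-EGFP minigene reporter cells. Compound incubation 48 hrs at 37 °C in Opti-MEM with 2% FBS; DMSO 0.5% final.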
In general terms: qHTS replaces the single test concentration by a dilution series.

[1] abbreviates: measured here: GFP splicing reporter channel.
[2] abbreviates: measured here: RFP viability control channel.

Consider `Cc1ccc(/C=C2/C(=O)NC(=O)N(CCc3ccc(F)cc3)C2=O)o1`, for which the AC50 (commonly the concentration at which the activity in the assay is half-maximal) was 0.0398 µM [falling, single point] under setting [1] and 0.0282 µM [falling, partial curve] under setting [2]. For `Nc1ccc2c(c1)Cc1cc([N+](=O)[O-])ccc1-2`, the AC50 under setting [2] was 1.58 µM [rising, partial curve, poor fit].

As to `O=C1C2CC=CCC2C(=O)N1SC(Cl)(Cl)Cl` (stereo unspecified), the half-maximal activity concentration (AC50) reads like this: under setting [1], 0.447 µM [falling, full curve, poor fit]; under setting [2], 0.794 µM [falling, full curve, poor fit]. In the case of `CCCCCn1c(NC(=O)c2ccco2)c(C(=O)OCC)c2nc3ccccc3nc21`, under setting [1], the AC50 is 11.2 µM [rising, single point]. `Cc1ccc(Cn2cccc(C(=O)Nc3ccc(C)c(Cl)c3)c2=O)cc1`: the AC50 under setting [2] was 22.4 µM [falling, single point]. In the case of `O=[N+]([O-])c1ccccc1`, the AC50 under setting [1] was 0.0447 µM [falling, full curve, poor fit].

For `CC[N@+]1(C)CCC[C@@H](OC(=O)C(O)(c2ccccc2)c2ccccc2)C1`, the half-maximal activity concentration (AC50) under setting [1] was 12.6 µM [falling, single point] and the AC50 under setting [2] was 0.00141 µM [rising, full curve, poor fit]. For the compound `CN1C[C@H](CNC(=O)OCc2ccccc2)C[C@@H]2c3cccc4c3c(cn4C)C[C@H]21`, the AC50 by setting is: under setting [1], 7.08 µM [falling, full curve, poor fit] and 35.5 µM [falling, single point]; under setting [2], 7.08 µM [falling, partial curve, poor fit] and 15.8 µM [falling, partial curve, poor fit]. On to `CCCOC1CCCN(C(=O)CCc2nnc(Cc3cccc(C)c3)o2)C1` (stereo unspecified), for which the AC50 under setting [2] was 0.112 µM [falling, full curve, poor fit]. Consider `CCCCCCCCCCCCCCCC[N+](C)(C)C`, for which the AC50 by setting is: under setting [1], 14.1 µM [rising, single point]; under setting [2], 0.562 µM [rising, full curve, poor fit]. In the case of `N#CC(C#N)=Cc1cc(O)c(O)c(O)c1`, the half-maximal activity concentration (AC50) is, setting by setting: under setting [1], 35.5 µM [falling, single point]; under setting [2], 11.2 µM [rising, single point]. Take `CCOc1ccccc1OCC(=O)Nc1ccc(Cl)cc1C(=O)c1ccccc1`: the half-maximal activity concentration (AC50) reads like this: under setting [1], 17.8 µM [rising, single point]; under setting [2], 20 µM [rising, partial curve]. Turning to `O=c1[nH]c(=S)[nH]c(O)c1N=Nc1ccc(OC(F)F)cc1`, the AC50 under setting [2] was 0.562 µM [rising, partial curve, poor fit]. Still for that read-out and setting: the value for `Cc1[nH]n(-c2ccccc2)c(=O)c1C(c1cccc([N+](=O)[O-])c1O)c1c(C)[nH]n(-c2ccccc2)c1=O` was 17.8 µM [rising, single point]. With `COc1ccc2c(c1)[C@@]13CCCC[C@H]1[C@@H](C2)NCC3`, under setting [2], the AC50 was 0.398 µM [rising, partial curve, poor fit]. On to `COc1cc2c(c(OC)c1OC)-c1ccc(OC)c(=O)cc1[C@@H](NC(C)=O)CC2`, for which the concentration at half-maximal activity (AC50) is, setting by setting: under setting [1], 31.6 nM [rising, full curve, poor fit] and 8.91 nM [falling, full curve]; under setting [2], 126 nM [rising, full curve] and 8.91 nM [falling, full curve]. On to `COc1ccc(C2C(C#N)=C(N)Oc3n[nH]c(C)c32)cc1Cn1cc([N+](=O)[O-])cn1` (stereo unspecified), for which the concentration at half-maximal activity (AC50) under setting [2] was 25.1 µM [falling, partial curve, poor fit]. The same measure, in the same setting: under `Cc1ccc(/C(CSc2nccn2-c2ncc(C(F)(F)F)cc2Cl)=N\O)cc1` stands 11.2 µM [rising, partial curve]. The same measure, in the same setting: under `CCC1(CCCC(=O)c2ccc(F)cc2)C(=O)NC(=S)NC1=O` stands 2.82 µM [falling, partial curve]. For the compound `CC[C@@H](CO)NC(=O)[C@@H]1C=C2c3cccc4c3c(cn4C)C[C@H]2N(C)C1`, the AC50 under setting [1] was 0.000794 µM [falling, full curve, poor fit].

`CCn1cc(C(=O)O)c(=O)c2cc(F)c(N3CCNCC3)cc21`: the half-maximal activity concentration (AC50) under setting [1] is 7.94 µM [falling, partial curve] and 1 µM [rising, full curve]; the AC50 under setting [2] is 7.94 µM [falling, partial curve, poor fit]. `CC(Cc1ccccc1)NCc1ccccc1Cl` (stereo unspecified): the AC50 under setting [2] is 0.178 µM [rising, partial curve, poor fit]. As for `COc1ccc(C(=O)Nc2ccc(S(=O)(=O)N(Cc3ccccc3)c3ccccc3)cc2)cc1`, the AC50 under setting [2] was 0.00708 µM [falling, full curve, poor fit]. As to `O=C1C=C2C=C[C@H]3C[C@@]2(O1)[C@H]1CCCCN31`, the AC50 under setting [1] is 14.1 µM [falling, single point] and the AC50 under setting [2] is 10 µM [falling, single point]. Regarding `COc1ccc(C(=O)C2CCCN(Cc3ccc(C)s3)C2)cc1OC` (stereo unspecified), under setting [2], the AC50 is 35.5 µM [falling, partial curve].

`Cc1ccc(S(=O)(=O)Nc2cc(C(=O)N3CCC4(CC3)OCCO4)ccc2N2CCCCC2)cc1`: under setting [1], the AC50 was 35.5 µM [rising, single point].

For `C[C@]12C=CC(=O)C=C1CCC1C2=CC[C@]2(C)[C@@H](C(=O)CN3CCN(c4cc(N5CCCC5)nc(N5CCCC5)n4)CC3)CC[C@@H]12` (stereo partly specified), under setting [1], the AC50 is 2.82 µM [falling, partial curve]. As for `C[CH2][Hg][S]c1ccccc1C(=O)O`, the AC50 runs as follows: under setting [1], 0.708 µM [falling, full curve]; under setting [2], 0.1 µM [falling, full curve].

Regarding `CC1OC1P(=O)(O)O` (stereo unspecified), the AC50 is, setting by setting: under setting [1], 11.2 µM [rising, partial curve]; under setting [2], 10 µM [rising, partial curve].

In the case of `Cc1ccc(/C=C2\C(=O)NC(=S)N(c3ccccc3F)C2=O)s1`, the AC50 under setting [2] was 17.8 µM [rising, partial curve]. Regarding `C[C@@H]1O[C@H](O[C@@H]2CC[C@@]3(C=O)[C@H]4CC[C@@]5(C)[C@@H](C6=CC(=O)OC6)CC[C@@]5(O)[C@@H]4CC[C@]3(O)C2)C[C@H](O)[C@@H]1O`, the AC50 is 0.000891 µM [falling, full curve, poor fit] under setting [1] and 14.1 µM [falling, partial curve, poor fit] under setting [2].

On to `COC(=O)C(O)(c1ccc(NC(=S)NC(=O)c2ccc(Cl)cc2Cl)cc1)C(F)(F)F` (stereo unspecified), for which the AC50 is 35.5 µM [rising, single point] under setting [1] and 35.5 µM [rising, single point] under setting [2]. Turning to `COc1cccc(C(=O)C2CN(C)CC2c2ccc(Cl)cc2)c1` (stereo unspecified), under setting [1], the AC50 was 11.2 µM [falling, partial curve, poor fit].

Regarding `O=C(c1ccc(-c2ccccc2)cc1)C1CCCN(Cc2ccn[nH]2)C1` (stereo unspecified), the AC50 under setting [2] was 7.94 µM [falling, full curve, poor fit]. On the same count and under the same terms, under `COc1cc2c(cc1/C=C/[N+](=O)[O-])OCO2` stands 5.62 µM [falling, single point]. Regarding `C[C@H](CCC(=O)O)[C@H]1CC[C@@H]2[C@H]3CC[C@H]4C[C@@H](O)CC[C@@]4(C)[C@H]3CC[C@]21C`, the concentration at half-maximal activity (AC50) by setting is: under setting [1], 1.12 µM [falling, partial curve, poor fit]; under setting [2], 1.41 µM [falling, single point].

Regarding `COP(=S)(OC)Oc1ccc(S(=O)(=O)N(C)C)cc1`, under setting [2], the AC50 was 0.355 µM [rising, partial curve].

Consider `CN1/C(=C\C=C\C2=[N+](C)c3ccc4ccccc4c3C2(C)C)C(C)(C)c2ccccc21`, for which the AC50 under setting [1] was 5.62 µM [falling, single point]. On to `COc1ccc(CC2(CCc3ccncc3)C(=O)NC(=O)NC2=O)c(OC)c1`, for which the AC50 under setting [2] was 0.02 µM [falling, full curve, poor fit].

As to `O=C(Nc1nc2ccccc2s1)c1cccn(Cc2ccccc2)c1=O`, the AC50 by setting is: under setting [1], 0.112 µM [falling, full curve, poor fit]; under setting [2], 0.316 µM [falling, full curve, poor fit].

Consider `O=C(Nc1ccc(Br)cc1)c1ccc(Cl)c(S(=O)(=O)N2CCCCCC2)c1`, for which the concentration at half-maximal activity (AC50) reads like this: under setting [1], 20 µM [falling, partial curve]; under setting [2], 0.0631 µM [falling, full curve, poor fit]. For `Cc1cc(NC(=O)CSc2nc3c([nH]c4ccccc43)c(=O)n2-c2ccc(Cl)cc2)no1`, under setting [2], the AC50 was 11.2 µM [falling, partial curve]. With `O=C1NC(=O)[C@]2(Cc3ccccc3N3CCN(c4ccccc4)CC32)C(=O)N1c1ccccc1` (stereo partly specified), the AC50 is, setting by setting: under setting [1], 35.5 µM [rising, single point]; under setting [2], 31.6 µM [rising, single point]. As to `CN(C)[C@H]1C(=O)C(C(N)=O)=C(O)[C@]2(O)C(=O)C3=C(O)c4c(O)cccc4[C@@](C)(O)[C@H]3C[C@@H]12`, the AC50 under setting [1] is 0.00631 µM [rising, full curve, poor fit] and the AC50 under setting [2] was 0.00178 µM [rising, full curve, poor fit]. As to `CCc1c(C(=O)NN2C(=O)C3C4CCC(O4)C3C2=O)csc1C` (stereo unspecified), under setting [2], the concentration at half-maximal activity (AC50) is 35.5 µM [rising, single point]. Consider `Oc1c(Br)cc(Br)cc1Oc1ccc(Br)cc1Br`, for which the AC50 is, setting by setting: under setting [1], 11.2 µM [rising, partial curve]; under setting [2], 20 µM [rising, partial curve]. Regarding `Cc1ccc(NP(=O)(Oc2ccccc2F)Oc2ccccc2F)cc1`, the AC50 under setting [1] is 35.5 µM [falling, single point] and the AC50 under setting [2] is 20 µM [falling, single point]. For `CN(C)C(=O)Oc1ccc(OCc2nc3ccccc3[nH]2)cc1`, the AC50 reads like this: under setting [1], 15.8 µM [rising, partial curve, poor fit]; under setting [2], 17.8 µM [rising, partial curve]. Take `COc1ccc(N2CCN(C(=O)c3cc(=O)[nH]c4ccccc34)CC2)cc1`: under setting [1], the AC50 is 0.0631 µM [falling, partial curve].
